Assay results taken from paper PMC9240598.

The chains behind the UniProt entries cited, without tags or fusion partners. Where a name states a change or a piece, a line headed by the entry shows the natural chain unless it says otherwise.
UniProt A0A977LLH1: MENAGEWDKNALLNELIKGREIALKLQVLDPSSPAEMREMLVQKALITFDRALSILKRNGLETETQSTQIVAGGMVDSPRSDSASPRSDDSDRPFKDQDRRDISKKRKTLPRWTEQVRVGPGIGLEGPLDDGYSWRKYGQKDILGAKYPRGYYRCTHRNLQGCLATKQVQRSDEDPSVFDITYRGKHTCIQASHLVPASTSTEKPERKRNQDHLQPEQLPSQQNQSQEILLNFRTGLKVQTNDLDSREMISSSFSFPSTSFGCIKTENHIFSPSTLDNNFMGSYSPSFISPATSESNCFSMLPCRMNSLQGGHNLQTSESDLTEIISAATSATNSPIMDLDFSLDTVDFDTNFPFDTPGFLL
UniProt A0A977LLH4: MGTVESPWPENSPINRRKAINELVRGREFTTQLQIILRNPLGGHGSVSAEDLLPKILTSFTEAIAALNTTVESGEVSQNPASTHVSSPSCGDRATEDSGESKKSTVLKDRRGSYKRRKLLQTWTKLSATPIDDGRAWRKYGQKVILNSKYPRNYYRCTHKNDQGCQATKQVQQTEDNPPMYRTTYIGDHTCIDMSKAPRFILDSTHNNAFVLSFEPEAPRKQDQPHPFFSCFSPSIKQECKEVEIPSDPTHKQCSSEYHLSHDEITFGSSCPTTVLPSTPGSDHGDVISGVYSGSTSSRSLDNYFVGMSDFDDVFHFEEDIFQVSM
UniProt A0A977LM10: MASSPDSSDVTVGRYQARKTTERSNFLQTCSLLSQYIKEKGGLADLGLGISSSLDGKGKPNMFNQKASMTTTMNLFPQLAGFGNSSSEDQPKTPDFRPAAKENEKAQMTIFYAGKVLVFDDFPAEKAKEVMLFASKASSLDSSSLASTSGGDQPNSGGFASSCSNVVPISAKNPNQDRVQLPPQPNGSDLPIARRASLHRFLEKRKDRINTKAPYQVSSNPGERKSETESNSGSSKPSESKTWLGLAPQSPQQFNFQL

These substances were tested against NnWRKY70b:nYFP fusion protein (BiFC) (Nelumbo nucifera (lotus)) (assay: split reporter; BiFC with the 2in1 split-EYFP system (pBiFCt-2in1-CN), both fusions from one vector with mRFP as internal marker; agro-infiltrated N. benthamiana leaves, confocal microscopy).

binding, binds:
NnWRKY53b (BiFC fusion in pBiFCt-2in1-CN) (from UniProt A0A977LLH1)
NnWRKY70a (BiFC fusion in pBiFCt-2in1-CN) (from UniProt A0A977LLH4)
NnJAZ1 (BiFC fusion in pBiFCt-2in1-CN) (from UniProt A0A977LM10)

These are yes or no findings as the source states them, for the method shown. Binding seen in cells or lysates may run through a third protein. A result given as binding can be weak or reduced; the word gives no strength.
